Test results from PubChem BioAssay AID493014 (National Center for Advancing Translational Sciences (NCATS), 2011).
Among all 340,000 compounds or so, about 170 (0.05%) were called active. Inconclusive means that the source gave no clear call. Such entries were picked first, then a sample of the others. Calls follow the shape of the dose curve; as a rule, active = well fitted inhibition curve with a large enough effect in the signal ratio, with a control signal flat (not every such curve was filed as active); inconclusive = small, poorly fitted or top-dose-only effect, or effect the other way, or a change in a side signal; inactive = flat fitted curve, though single readings scatter; the % refers to the signal ratio. Potencies beside an inconclusive call are fits to weak or partial responses and may not hold up.

test: qHTS Assay to Find Inhibitors of Chronic Active B-Cell Receptor Signaling; conditions: ABC-DLBCL IkBa-CBG/CBR reporter, luminescence ratio (green luciferase fused to IkBa over red control in TMD8 lymphoma cells), 4 h; activity change, negative = inhibition: at 46.1 µM (top of the series);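 as to activity change, negative = inhibition: plate controls were basal doxycycline-induced cells for no effect and cells given 10 µM MG132 for full effect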
Procedure, shortened: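 TMD8 human ABC-DLBCL cells with doxycycline-inducible IκBα–green luciferase fusion and unfused red luciferase, in 0.5% FBS medium; compounds up to 46 uM, 4 h at 37C. Green/red luminescence ratio, filter-overlap corrected, fitted to concentration-response curves.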
Potency is read from the fitted curve at half-maximal effect.

| SMILES | activity change, negative = inhibition | Potency |
| --- | --- | --- |
| COc1ccc(-c2csc(NC(=O)CN3C(=O)NC4(CCCC4)C3=O)n2)cc1 | inconclusive: -0.354% | – |
| CCCCc1nnc(SCC(=O)Nc2nccs2)n1C | inconclusive: 3.02% | – |
| Cc1cc(N/C(=N/S(=O)(=O)c2ccc(F)cc2)c2ccccc2)n(-c2ccccc2)n1 | inactive: -4.26% | – |
| COc1ccc2c(c1OC)C(=O)OC2C1c2c(cc3c(c2OC)OCO3)CCN1C (configuration not stated) | – | inconclusive: 1.58 µM [rising, full curve, poor fit] |
| COc1ccc(OC)c(NC(=O)c2nc3ccccc3s2)c1 | inconclusive: 11.2% | – |
| Cc1cc(C)c2[nH]c3nc(SCC(=O)O)nnc3c2c1 | inactive: 1.44% | – |
| CC(=O)Nc1ccc(NC(=O)CCCSc2nc3ccccc3s2)cc1 | inconclusive: 19.6% | – |
| CCOc1cc(CNc2ccc3c(c2)OCCO3)cc(Br)c1OCC | – | inconclusive: 10 µM [falling, partial curve] |
| O=C(N/N=C/c1cn(-c2ccccc2)nc1-c1ccccc1)c1ccco1 | – | inconclusive: 5.8 µM [falling, partial curve] |
| CN1CCN(C(c2ccccn2)c2cc(Cl)c3cccnc3c2O)CC1 (configuration not stated) | – | active: 7.08 µM |
| Cc1nn(C)c(C)c1CN(C(=O)C1CCC(=O)N(C2CCCCCC2)C1)C(C)C (configuration not stated) | inactive: -3.26% | – |
| Cc1cc(=O)oc2cc(OC(=O)CCCCCN3C(=O)c4ccccc4C3=O)ccc12 | – | inconclusive: 5.8 µM [rising, partial curve, poor fit] |
| CCCC(=O)Nc1ccc(C(=O)NCc2ccccc2Cl)cc1 | inactive: -7.35% | – |
| CCC(=O)Nc1nnc(CCc2ccccc2)s1 | – | inconclusive: 23.1 µM [falling, single point] |
| COc1nc(Nc2ccc(O)cc2)nc(OC(C(F)(F)F)C(F)(F)F)n1 | inconclusive: -3.63% | – |
| CC(=O)NCCc1nc2cc(NC(=O)c3ccccc3Cl)ccc2n1C | – | inconclusive: 11.2 µM [falling, partial curve, poor fit] |
| CCOC(=O)c1c2c(c(=S)n(-c3ccccc3)c1N)CCC2 | inconclusive: 8.34% | – |
| Cc1c(NC(=O)CSc2nc3ccccc3s2)c(=O)n(-c2ccccc2)n1C | inconclusive: 21.4% | – |
| O=C(/C=C/c1ccccc1)CC(O)(c1ccccc1)C(F)(F)F (configuration not stated) | – | inconclusive: 0.82 µM [falling, full curve, poor fit] |
| CCCCN(C)C(=O)C1CCC(CNS(=O)(=O)c2ccc(Cl)cc2)CC1 (configuration not stated) | inconclusive: 10% | – |
| CC(C)Oc1ccc(C(=O)NNC(=O)c2ccccc2C(=O)O)cc1 | – | inconclusive: 2.59 µM [falling, full curve] |
| Cc1onc(-c2c(F)cccc2Cl)c1C(=O)N1CCc2ccccc21 | inactive: 7.15% | – |

Already shown: an excerpt of the list.

| SMILES | activity change, negative = inhibition | Potency |
| --- | --- | --- |
| Cc1cc(=O)oc2cc(OC(=O)CCCCCN3C(=O)c4ccccc4C3=O)ccc12 | – | inconclusive: 5.8 µM [rising, partial curve, poor fit] |
| CCCC(=O)Nc1ccc(C(=O)NCc2ccccc2Cl)cc1 | inactive: -7.35% | – |
| CCC(=O)Nc1nnc(CCc2ccccc2)s1 | – | inconclusive: 23.1 µM [falling, single point] |
| COc1nc(Nc2ccc(O)cc2)nc(OC(C(F)(F)F)C(F)(F)F)n1 | inconclusive: -3.63% | – |
| CC(=O)NCCc1nc2cc(NC(=O)c3ccccc3Cl)ccc2n1C | – | inconclusive: 11.2 µM [falling, partial curve, poor fit] |
| CCOC(=O)c1c2c(c(=S)n(-c3ccccc3)c1N)CCC2 | inconclusive: 8.34% | – |
